Measurements published in paper doi:10.1101/2025.01.05.631347.
These are yes or no findings as the source states them, for the method shown. Binding seen in cells or lysates may run through a third protein. Some entries that bind do so weakly or less than the wild type.

By UniProt entry, the sequences of proteins in these tests, tags left out.
UniProt P22561: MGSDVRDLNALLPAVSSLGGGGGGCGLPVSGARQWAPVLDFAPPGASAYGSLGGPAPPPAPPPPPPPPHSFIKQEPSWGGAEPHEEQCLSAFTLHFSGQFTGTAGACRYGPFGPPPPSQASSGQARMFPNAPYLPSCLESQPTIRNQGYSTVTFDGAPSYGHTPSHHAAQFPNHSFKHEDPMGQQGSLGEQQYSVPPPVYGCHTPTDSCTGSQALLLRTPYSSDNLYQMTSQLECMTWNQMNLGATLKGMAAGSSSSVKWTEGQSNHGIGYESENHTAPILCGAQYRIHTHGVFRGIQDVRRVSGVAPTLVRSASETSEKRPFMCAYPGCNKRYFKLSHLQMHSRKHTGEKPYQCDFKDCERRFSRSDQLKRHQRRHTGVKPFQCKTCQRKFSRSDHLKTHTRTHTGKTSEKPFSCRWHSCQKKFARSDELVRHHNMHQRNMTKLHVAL
UniProt Q8CJG0: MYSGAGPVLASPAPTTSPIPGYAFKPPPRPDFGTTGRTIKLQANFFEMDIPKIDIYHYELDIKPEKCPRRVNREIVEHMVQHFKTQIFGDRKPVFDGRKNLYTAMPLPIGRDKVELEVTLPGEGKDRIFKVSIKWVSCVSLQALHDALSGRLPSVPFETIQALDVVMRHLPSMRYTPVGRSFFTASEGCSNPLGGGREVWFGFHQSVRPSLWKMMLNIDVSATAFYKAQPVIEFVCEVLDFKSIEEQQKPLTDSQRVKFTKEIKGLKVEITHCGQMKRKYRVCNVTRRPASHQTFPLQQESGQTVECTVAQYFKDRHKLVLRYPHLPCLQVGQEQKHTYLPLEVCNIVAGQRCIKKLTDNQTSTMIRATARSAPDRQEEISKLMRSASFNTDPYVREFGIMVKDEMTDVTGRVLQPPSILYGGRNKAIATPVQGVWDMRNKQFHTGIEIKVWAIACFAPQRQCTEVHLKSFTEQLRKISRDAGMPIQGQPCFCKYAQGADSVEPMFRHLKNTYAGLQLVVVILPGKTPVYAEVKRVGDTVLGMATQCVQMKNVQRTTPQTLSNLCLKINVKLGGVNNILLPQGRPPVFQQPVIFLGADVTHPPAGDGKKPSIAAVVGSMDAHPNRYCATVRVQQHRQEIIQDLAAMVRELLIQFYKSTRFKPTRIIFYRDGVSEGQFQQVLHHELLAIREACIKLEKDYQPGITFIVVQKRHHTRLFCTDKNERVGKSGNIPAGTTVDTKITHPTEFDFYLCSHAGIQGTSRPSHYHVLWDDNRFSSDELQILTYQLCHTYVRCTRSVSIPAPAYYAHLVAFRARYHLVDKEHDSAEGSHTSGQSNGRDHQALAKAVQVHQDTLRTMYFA

Target: Wilms Tumour 1 (WT1) protein (mouse (endogenous in M15)) (UniProt P22561)
Assay: co-IP

- binding: binds
Substance: AGO2 (from UniProt Q8CJG0 1-860)
